US20180014536A1, “AGENT FOR IMPROVING PLANT GROWTH AND METHOD FOR PRODUCING PLANT USING SAME” (FUSO CHEMICAL CO., LTD., priority 2015, published 2018)
Some entries share one result that the patent states for a list of compounds. For at least one compound, name, drawing or mass did not settle the structure.

Test system: cucumber
Assay: Verification experiment 6: dry stress
Assay type: in vivo
Conditions: 18 days dry stress
Description: By use of cucumber, a resistance to dry stress was investigated. 3 ml of Zerumbone was added to cucumber seedlings immediately after germination. The cucumber seedlings were cultivated for 18 days. Meanwhile, another cucumber seedlings were cultivated for 18 days without Zerumbone added thereto. Throughout the cultivation period, a minimum amount of water was given and watering was conducted a minimum number of times so that the soil surface was always kept dry. […] A weight of each of the seedlings was measured. […] Note that, except for the agent, the cultivation conditions used were identical to those of the case where zerumbone was used.

C/C1=C\CC/C(C)=C/CC(C)(C)/C=C/C1 [α-humulene]
average weight greater than the control samples: ≥ 8%
